{"source": "PubChem BioAssay AID1224826 (NIAID, 2016)", "purpose": "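Genes that change LPS-induced Tnf promoter activity in mouse macrophages when knocked down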 (primary screen)", "cells": "RAW264.7 G9 macrophages from mouse bearing reporters for p65 (GFP) and the Tnf promoter (mCherry)", "reagent": "siRNA pool against mouse genes, 100 nM", "time to read-out": "16 h of LPS stimulation, after 2 days of siRNA transfection", "challenge": "bacterial lipopolysaccharide (Salmonella minnesota R595), 10 ng/ml", "measured": "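Imaged Tnf reporter mCherry in nuclei, minus background, normalised per plate to the median and expressed as robust z-scores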", "direction": "Tnf reporter robust z-score: higher = stronger Tnf promoter reporter signal after LPS", "call rule": "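a well counts as active at a score of -1.3 or below (Tlr4 knock-down control median) or above 3 (raised signal); controls and wells holding fewer than 50 cells are excluded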", "calls": "active = Tnf reporter clearly lowered or raised; inactive = no clear change in Tnf reporter", "note": "The whole screen tested about 17,000 reagents; this is a random part of them. In the full data, about 1,110 (6.6%) were called active. 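Active means lowered or raised reporter signal; replicate intensities are raw and not normalised per plate.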 Unmarked entries are inactive. The numbers tell different reagents against one gene apart. Further read-outs or replicates are left out here. No sequences are given here."}
{"Gene": "Mesp2 (mesoderm posterior 2)", "pool no.": 1, "Tnf reporter robust z-score": 0.24, "fewer than 50 cells in well": "enough cells in well"}
{"Gene": "Rab30 (RAB30, member RAS oncogene family)", "pool no.": 1, "Tnf reporter robust z-score": -0.22, "fewer than 50 cells in well": "enough cells in well"}
{"Gene": "Timp3 (tissue inhibitor of metalloproteinase 3)", "pool no.": 1, "Tnf reporter robust z-score": 0.94, "fewer than 50 cells in well": "enough cells in well"}
{"Gene": "Cps1 (carbamoyl-phosphate synthetase 1)", "pool no.": 1, "Tnf reporter robust z-score": 0, "fewer than 50 cells in well": "enough cells in well"}
{"Gene": "Usp54 (ubiquitin specific peptidase 54)", "pool no.": 1, "Tnf reporter robust z-score": -0.52, "fewer than 50 cells in well": "enough cells in well"}
{"Gene": "Usp54 (ubiquitin specific peptidase 54)", "pool no.": 2, "Tnf reporter robust z-score": 1.74, "fewer than 50 cells in well": "enough cells in well"}
{"Gene": "Hpgds (hematopoietic prostaglandin D synthase)", "pool no.": 1, "Tnf reporter robust z-score": -0.57, "fewer than 50 cells in well": "enough cells in well"}
{"Gene": "Kcnh3", "pool no.": 1, "Tnf reporter robust z-score": -0.35, "fewer than 50 cells in well": "enough cells in well"}
{"Gene": "Lin7b (lin-7 homolog B, crumbs cell polarity complex component)", "pool no.": 1, "Tnf reporter robust z-score": 0.06, "fewer than 50 cells in well": "enough cells in well"}
{"Gene": "1700084J12Rik (RIKEN cDNA 1700084J12 gene)", "pool no.": 1, "Tnf reporter robust z-score": "-1.44 (active)", "fewer than 50 cells in well": "enough cells in well"}
{"Gene": "Dcx (doublecortin)", "pool no.": 1, "Tnf reporter robust z-score": -0.64, "fewer than 50 cells in well": "enough cells in well"}
{"Gene": "Neurod6 (neurogenic differentiation 6)", "pool no.": 1, "Tnf reporter robust z-score": 0.06, "fewer than 50 cells in well": "enough cells in well"}
{"Gene": "Tmem39b (transmembrane protein 39b)", "pool no.": 1, "Tnf reporter robust z-score": 0.77, "fewer than 50 cells in well": "enough cells in well"}
{"Gene": "Dsn1 (DSN1 homolog, MIS12 kinetochore complex component)", "pool no.": 1, "Tnf reporter robust z-score": 0.25, "fewer than 50 cells in well": "enough cells in well"}

An excerpt from above, reduced to “fewer than 50 cells in well”:
Timp3 (tissue inhibitor of metalloproteinase 3) = enough cells in well
Cps1 (carbamoyl-phosphate synthetase 1) = enough cells in well
